Source: publication PMC8663781
Results are given in words; binding and its absence hold for the method and conditions named. In cells and extracts the contact can be indirect. Some results given as binding are weak or reduced against the parent protein; the word gives no strength.

By UniProt entry, the sequences of proteins in these tests, tags left out.
UniProt P25490: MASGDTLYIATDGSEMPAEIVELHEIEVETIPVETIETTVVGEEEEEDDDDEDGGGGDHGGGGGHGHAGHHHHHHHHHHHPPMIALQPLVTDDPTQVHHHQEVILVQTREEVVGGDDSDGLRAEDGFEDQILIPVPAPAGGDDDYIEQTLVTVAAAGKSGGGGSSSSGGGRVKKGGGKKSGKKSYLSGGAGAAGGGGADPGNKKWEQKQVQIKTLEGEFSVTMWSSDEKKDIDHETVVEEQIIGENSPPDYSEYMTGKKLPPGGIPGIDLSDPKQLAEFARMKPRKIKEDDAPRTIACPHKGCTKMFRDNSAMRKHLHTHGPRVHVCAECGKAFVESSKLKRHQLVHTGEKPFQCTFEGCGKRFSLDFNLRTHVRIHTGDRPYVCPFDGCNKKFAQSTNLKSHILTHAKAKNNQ

Molecular target: Yin Yang 1 (YY1) (human (endogenous in HEK293T)) (UniProt P25490)
Assay: co-IP; endogenous proteins in HEK293T cell lysate; capture with YY1 antibody overnight at 4°C, Protein A/G magnetic beads (Pierce Classic Magnetic IP/Co-IP Kit), Western blot of the eluate

B1: T-box transcription factor 21 (T-bet) (protein, UniProt Q9UL17 1-535)
chain: MGIVEPGCGDMLTGTEPMPGSDEGRAPGADPQHRYFYPEPGAQDADERRGGGSLGSPYPGGALVPAPPSRFLGAYAYPPRPQAAGFPGAGESFPPPADAEGYQPGEGYAAPDPRAGLYPGPREDYALPAGLEVSGKLRVALNNHLLWSKFNQHQTEMIITKQGRRMFPFLSFTVAGLEPTSHYRMFVDVVLVDQHHWRYQSGKWVQCGKAEGSMPGNRLYVHPDSPNTGAHWMRQEVSFGKLKLTNNKGASNNVTQMIVLQSLHKYQPRLHIVEVNDGEPEAACNASNTHIFTFQETQFIAVTAYQNAEITQLKIDNNPFAKGFRENFESMYTSVDTSIPSPPGPNCQFLGGDHYSPLLPNQYPVPSRFYPDLPGQAKDVVPQAYWLGAPRDHSYEAEFRAVSMKPAFLPSAPGPTMSYYRGQEVLAPGAGWPVAPQYPPKMGPASWFRPMRTLPMEPGPGGSEGRGPEDQGPPLVWTEIAPIRPESSDSGLGEGDSKRRRVSPYPSSGDSSSPAGAPSPFDKEAEGQFYNYFPN
binding: binds
